According to the supplement of paper PMC10849652:
The other results are listed elsewhere or left out.

Sequences of proteins named here, by UniProt entry; tags and fusion partners are left off. A change or cut given only in a name is not applied to a line headed by its entry.
UniProt Q15029: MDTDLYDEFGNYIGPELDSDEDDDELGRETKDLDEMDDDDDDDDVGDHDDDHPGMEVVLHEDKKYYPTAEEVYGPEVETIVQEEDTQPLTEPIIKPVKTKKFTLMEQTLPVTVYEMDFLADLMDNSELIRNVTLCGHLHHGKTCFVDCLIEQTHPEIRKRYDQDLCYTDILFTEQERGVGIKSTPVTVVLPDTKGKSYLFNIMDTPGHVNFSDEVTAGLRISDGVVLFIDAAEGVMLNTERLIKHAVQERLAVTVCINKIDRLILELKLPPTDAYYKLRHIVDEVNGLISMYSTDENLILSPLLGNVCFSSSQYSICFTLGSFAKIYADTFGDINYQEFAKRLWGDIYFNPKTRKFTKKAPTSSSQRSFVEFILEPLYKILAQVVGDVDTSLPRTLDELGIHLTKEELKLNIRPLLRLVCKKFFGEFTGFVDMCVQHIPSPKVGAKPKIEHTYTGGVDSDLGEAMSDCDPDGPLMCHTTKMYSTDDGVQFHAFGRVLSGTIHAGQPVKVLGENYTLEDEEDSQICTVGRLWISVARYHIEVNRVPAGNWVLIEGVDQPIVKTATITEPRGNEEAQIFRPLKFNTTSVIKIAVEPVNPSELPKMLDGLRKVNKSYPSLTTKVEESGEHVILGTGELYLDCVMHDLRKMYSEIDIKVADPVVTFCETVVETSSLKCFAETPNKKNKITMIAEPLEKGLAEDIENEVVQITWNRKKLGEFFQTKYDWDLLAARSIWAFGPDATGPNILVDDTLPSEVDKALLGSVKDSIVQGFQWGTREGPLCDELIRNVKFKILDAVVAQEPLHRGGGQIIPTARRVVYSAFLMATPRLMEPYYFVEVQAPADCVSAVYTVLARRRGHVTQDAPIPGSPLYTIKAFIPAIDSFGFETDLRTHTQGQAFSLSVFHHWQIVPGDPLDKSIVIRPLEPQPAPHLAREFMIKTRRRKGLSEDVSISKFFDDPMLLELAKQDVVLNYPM
UniProt O43768: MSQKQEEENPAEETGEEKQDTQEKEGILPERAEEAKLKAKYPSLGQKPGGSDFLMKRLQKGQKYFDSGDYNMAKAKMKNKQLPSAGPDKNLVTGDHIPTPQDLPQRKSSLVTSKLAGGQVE
UniProt P06730, whole entry, looked up: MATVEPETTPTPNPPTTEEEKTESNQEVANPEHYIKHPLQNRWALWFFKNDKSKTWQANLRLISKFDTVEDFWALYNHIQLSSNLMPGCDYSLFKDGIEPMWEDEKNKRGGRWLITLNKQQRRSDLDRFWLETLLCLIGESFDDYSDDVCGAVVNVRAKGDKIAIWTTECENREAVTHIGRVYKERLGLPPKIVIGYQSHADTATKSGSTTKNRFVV
UniProt P55884, whole entry, looked up: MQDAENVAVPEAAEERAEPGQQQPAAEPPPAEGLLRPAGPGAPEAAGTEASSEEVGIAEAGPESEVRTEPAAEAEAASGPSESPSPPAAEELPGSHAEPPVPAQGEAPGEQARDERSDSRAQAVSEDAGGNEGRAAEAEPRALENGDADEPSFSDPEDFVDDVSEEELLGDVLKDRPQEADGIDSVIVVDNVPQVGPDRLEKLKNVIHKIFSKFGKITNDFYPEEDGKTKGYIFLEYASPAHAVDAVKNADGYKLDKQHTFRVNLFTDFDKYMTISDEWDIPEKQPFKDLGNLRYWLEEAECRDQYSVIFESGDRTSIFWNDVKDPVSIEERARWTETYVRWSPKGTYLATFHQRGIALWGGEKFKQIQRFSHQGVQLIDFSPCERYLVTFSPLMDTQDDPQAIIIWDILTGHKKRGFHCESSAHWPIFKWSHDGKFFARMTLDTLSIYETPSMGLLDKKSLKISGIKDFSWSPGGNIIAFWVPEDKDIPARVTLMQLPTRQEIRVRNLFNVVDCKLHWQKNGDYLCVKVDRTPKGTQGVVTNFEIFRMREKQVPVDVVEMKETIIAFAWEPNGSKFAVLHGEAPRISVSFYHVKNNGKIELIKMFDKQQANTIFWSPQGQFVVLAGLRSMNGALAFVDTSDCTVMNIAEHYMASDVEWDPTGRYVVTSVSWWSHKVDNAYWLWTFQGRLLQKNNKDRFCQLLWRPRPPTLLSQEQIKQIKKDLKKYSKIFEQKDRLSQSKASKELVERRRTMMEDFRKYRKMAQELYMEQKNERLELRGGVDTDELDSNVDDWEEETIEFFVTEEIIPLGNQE
UniProt P13929, whole entry, looked up: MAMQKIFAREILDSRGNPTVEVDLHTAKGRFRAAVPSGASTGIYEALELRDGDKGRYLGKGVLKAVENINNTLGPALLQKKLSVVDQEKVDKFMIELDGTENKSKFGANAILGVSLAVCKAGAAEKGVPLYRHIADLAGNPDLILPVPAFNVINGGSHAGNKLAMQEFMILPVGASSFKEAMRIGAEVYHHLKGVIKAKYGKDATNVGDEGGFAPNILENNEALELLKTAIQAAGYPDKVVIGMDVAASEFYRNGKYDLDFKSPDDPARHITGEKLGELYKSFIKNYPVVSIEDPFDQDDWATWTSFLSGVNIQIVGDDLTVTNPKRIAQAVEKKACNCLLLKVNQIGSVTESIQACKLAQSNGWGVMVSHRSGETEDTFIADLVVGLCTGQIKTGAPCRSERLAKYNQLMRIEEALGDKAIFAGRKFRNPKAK
UniProt P11171, whole entry, looked up: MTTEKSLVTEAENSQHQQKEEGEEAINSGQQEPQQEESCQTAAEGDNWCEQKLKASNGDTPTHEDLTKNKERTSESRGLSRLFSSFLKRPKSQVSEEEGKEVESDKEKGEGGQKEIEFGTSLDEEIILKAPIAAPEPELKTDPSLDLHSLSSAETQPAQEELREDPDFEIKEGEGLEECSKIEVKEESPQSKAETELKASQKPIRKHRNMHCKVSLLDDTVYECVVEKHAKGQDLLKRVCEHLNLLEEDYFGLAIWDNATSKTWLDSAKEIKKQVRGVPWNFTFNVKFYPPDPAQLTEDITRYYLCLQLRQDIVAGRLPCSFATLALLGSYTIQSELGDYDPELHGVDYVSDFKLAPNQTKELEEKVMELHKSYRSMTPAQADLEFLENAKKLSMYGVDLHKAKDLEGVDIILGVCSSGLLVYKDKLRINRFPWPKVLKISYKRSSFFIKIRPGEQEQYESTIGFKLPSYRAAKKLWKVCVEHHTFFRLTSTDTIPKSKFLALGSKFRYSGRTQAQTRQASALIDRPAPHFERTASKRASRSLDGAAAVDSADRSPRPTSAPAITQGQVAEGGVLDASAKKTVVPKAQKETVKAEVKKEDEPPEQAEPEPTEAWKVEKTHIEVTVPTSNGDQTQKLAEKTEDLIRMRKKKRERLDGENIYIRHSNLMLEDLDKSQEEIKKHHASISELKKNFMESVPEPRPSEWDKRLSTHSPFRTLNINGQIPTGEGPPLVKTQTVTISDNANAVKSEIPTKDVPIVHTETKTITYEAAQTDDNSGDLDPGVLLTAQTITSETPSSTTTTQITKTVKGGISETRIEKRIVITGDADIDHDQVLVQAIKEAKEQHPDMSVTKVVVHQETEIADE
UniProt Q5NDL2: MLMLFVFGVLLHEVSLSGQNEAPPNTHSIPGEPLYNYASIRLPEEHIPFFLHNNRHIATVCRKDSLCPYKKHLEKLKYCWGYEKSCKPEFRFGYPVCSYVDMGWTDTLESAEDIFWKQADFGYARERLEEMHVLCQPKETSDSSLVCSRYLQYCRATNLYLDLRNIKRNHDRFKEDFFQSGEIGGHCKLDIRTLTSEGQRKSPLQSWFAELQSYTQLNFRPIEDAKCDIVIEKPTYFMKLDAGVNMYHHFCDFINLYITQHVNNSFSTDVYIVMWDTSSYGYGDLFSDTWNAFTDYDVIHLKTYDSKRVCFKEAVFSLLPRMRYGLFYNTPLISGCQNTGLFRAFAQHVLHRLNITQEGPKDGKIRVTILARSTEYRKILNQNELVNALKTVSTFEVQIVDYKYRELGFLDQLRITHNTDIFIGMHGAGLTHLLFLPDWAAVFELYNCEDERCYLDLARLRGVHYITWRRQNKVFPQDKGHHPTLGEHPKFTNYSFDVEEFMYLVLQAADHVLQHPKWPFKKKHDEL
UniProt Q9GZT9: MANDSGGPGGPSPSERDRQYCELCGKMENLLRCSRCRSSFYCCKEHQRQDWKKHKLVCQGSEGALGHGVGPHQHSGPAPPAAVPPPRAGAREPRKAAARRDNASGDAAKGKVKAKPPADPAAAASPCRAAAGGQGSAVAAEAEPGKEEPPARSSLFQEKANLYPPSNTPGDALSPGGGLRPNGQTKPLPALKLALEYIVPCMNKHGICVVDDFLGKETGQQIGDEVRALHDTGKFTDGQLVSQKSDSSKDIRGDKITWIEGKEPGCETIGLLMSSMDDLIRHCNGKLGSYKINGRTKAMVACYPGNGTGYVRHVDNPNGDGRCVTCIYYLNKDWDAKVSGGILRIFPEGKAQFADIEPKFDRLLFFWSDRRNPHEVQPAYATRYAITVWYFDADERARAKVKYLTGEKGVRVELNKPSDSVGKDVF
UniProt P63241: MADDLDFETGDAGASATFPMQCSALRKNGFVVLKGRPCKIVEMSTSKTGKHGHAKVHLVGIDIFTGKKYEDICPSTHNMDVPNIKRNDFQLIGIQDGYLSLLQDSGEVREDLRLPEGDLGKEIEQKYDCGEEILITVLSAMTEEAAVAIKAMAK
UniProt Q9UHY7: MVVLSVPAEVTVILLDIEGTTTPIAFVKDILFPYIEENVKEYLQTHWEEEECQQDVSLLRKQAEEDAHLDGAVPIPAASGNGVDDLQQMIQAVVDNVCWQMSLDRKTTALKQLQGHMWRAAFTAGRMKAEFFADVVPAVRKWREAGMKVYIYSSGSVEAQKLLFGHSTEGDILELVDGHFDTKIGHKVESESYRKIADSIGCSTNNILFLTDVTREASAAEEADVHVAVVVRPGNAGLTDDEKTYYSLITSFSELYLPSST
UniProt O43324: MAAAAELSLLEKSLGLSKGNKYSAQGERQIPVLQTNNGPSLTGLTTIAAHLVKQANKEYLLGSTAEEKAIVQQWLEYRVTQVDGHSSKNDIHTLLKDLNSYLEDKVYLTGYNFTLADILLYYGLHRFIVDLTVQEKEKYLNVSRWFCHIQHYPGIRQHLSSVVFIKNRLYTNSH
UniProt P38919, whole entry, looked up: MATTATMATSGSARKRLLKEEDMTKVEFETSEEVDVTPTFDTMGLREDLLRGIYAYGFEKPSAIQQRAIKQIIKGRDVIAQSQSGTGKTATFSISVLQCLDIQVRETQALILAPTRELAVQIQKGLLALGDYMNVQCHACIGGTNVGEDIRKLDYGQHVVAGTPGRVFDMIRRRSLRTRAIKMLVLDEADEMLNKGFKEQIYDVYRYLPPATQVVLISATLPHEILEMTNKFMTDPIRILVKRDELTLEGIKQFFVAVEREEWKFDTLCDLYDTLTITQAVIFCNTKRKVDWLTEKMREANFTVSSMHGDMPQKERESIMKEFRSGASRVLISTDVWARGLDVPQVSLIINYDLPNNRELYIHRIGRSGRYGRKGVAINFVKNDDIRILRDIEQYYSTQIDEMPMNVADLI
UniProt Q9P0I2: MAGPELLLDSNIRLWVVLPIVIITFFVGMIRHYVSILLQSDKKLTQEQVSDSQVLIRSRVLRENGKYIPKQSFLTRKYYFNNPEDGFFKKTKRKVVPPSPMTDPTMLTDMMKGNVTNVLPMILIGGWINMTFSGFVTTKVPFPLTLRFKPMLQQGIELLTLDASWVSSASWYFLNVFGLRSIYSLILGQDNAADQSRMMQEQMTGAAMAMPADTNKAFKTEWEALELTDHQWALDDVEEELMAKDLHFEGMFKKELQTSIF
UniProt P06733, whole entry, looked up: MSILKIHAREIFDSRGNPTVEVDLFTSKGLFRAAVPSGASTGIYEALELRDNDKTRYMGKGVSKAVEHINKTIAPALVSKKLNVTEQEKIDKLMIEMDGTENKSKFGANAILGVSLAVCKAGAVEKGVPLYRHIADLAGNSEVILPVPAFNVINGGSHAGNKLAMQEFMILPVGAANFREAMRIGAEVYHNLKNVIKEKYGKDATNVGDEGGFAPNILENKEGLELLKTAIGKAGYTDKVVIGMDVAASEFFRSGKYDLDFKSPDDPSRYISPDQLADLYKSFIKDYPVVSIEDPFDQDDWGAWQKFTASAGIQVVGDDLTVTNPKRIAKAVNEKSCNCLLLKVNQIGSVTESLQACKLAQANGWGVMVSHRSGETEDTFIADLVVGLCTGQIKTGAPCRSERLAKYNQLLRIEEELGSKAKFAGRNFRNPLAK
UniProt O94919: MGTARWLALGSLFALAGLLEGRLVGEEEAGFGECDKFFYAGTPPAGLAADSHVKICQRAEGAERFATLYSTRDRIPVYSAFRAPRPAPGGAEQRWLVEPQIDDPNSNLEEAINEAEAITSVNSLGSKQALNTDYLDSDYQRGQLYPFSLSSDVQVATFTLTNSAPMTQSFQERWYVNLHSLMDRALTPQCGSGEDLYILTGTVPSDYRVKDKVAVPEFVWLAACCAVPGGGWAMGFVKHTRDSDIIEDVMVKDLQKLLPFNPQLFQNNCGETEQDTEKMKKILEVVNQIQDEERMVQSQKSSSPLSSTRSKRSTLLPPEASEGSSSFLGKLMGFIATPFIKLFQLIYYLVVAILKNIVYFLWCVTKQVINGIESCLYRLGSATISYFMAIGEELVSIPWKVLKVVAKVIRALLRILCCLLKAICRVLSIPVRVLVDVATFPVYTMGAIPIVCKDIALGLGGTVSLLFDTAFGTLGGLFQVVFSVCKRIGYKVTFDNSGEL

Columns and labels:
Assay in all cases: log2 fold change, soluble protein after heating vs DMSO (PISA); higher = thermal stabilisation; K562 cells, 10 uM, 30 min; active = over 0.2 and 3.5 SD of the protein, either way, in both replicates (recomputed)
[1] = compound: NC(=O)Nc1cc(-c2cccc(F)c2)sc1C(=O)N[C@H]1CCCNC1
Outline: (§1)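 Values are thermal stability changes relative to control samples and are taken from duplicates. They are stated as log2 fold changes. Before quantification by TMTpro 16plex LC-MS/MS with equalised channel sums, K562 cells at 2×10^6 cells/mL were treated with 10 μM compound for 30 min, heated in aliquots for 3 min across 48°C-58°C, pooled, extracted in PBS with 0.5% NP-40 at 4°C, and centrifuged at 21,000xg for 90 min to give the soluble supernatant.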

[2] = compound: NC(=O)c1cnc(N[C@@H]2CCCC[C@@H]2N)nc1Nc1cccc(-n2nccn2)c1
Outline: as §1

[3] = compound: NC1(c2ccc(-c3nc4ccn5c(=O)[nH]nc5c4cc3-c3ccccc3)cc2)CCC1
Outline: as §1

[4] = compound: NCC(=O)Nc1ccc(-n2nc(C(F)(F)F)cc2-c2ccc3c(ccc4ccccc43)c2)cc1
Outline: as §1

entinostat = compound: Nc1ccccc1NC(=O)c1ccc(CNC(=O)OCc2cccnc2)cc1 [entinostat]
Outline: as §1

vorinostat = compound: O=C(CCCCCCC(=O)Nc1ccccc1)NO [vorinostat]
Outline: as §1

citarinostat = compound: O=C(CCCCCCNC(=O)c1cnc(N(c2ccccc2)c2ccccc2Cl)nc1)NO [citarinostat]
Outline: as §1

silmitasertib = compound: O=C(O)c1ccc2c(c1)nc(Nc1cccc(Cl)c1)c1ccncc12 [silmitasertib]
Outline: as §1

[5] = compound: O=C1NC(=O)C(c2cnc3ccccn23)=C1c1cn2c3c(cc(F)cc13)CN(C(=O)N1CCCCC1)CC2
Outline: as §1

[6] = compound: c1cc(OCCN2CCCCC2)cc(-c2n[nH]c3ccc(-c4nnc[nH]4)cc23)c1
Outline: as §1

Measured: log2 fold change

EFTUD2 (UniProt Q15029)
inactive: [1] 0.073 | [2] 0.036 | [3] 0.039 | [4] 0.061 | entinostat -0.044 | vorinostat 0.002 | citarinostat 0.009 | silmitasertib -0.005 | [5] 0.036 | [6] -0.036

EIF6 (UniProt P56537)
inactive: [1] 0.032 | [2] -0.04 | [3] 0.046 | [4] 0.035 | entinostat -0.04 | vorinostat -0.047 | citarinostat 0.017 | silmitasertib 0.053 | [5] -0.019 | [6] 0.025

ENSA isoform 3 (UniProt O43768)
inactive: [1] -0.021 | [2] -0.045 | [3] 0.032 | [4] 0.015 | entinostat -0.021 | vorinostat -0.031 | citarinostat 0.021 | silmitasertib -0.015 | [5] -0.031 | [6] 0.048

ELP6 (UniProt Q0PNE2)
inactive: [1] -0.003 | [2] -0.041 | [3] -0.035 | [4] -0.031 | entinostat -0.032 | vorinostat -0.053 | citarinostat 0.021 | silmitasertib 0.009 | [5] -0.087 | [6] 0

EIF3J (UniProt O75822)
inactive: [1] 0.035 | [2] -0.033 | [3] -0.072 | [4] 0.007 | entinostat 0.012 | vorinostat 0.143 | citarinostat 0.001 | silmitasertib 0.042 | [5] -0.017 | [6] 0.022

EIF4E isoform 2 (UniProt P06730)
inactive: [1] 0.005 | [2] 0.226 | [3] 0.059 | [4] 0.126 | entinostat -0.073 | vorinostat -0.01 | citarinostat -0.026 | silmitasertib 0.102 | [5] -0.044 | [6] 0.141

EMC2 (UniProt Q15006)
inactive: [1] 0.014 | [2] -0.027 | [3] -0.065 | [4] -0.015 | entinostat 0.02 | vorinostat 0.018 | citarinostat 0.021 | silmitasertib -0.027 | [5] -0.014 | [6] -0.011

EIF3L (UniProt Q9Y262)
inactive: [1] 0.018 | [2] -0.037 | [3] -0.059 | [4] 0.001 | entinostat -0.001 | vorinostat 0.039 | citarinostat 0.03 | silmitasertib -0.027 | [5] -0.102 | [6] -0.067

EIF3B isoform 2 (UniProt P55884)
inactive: [1] -0.073 | [2] -0.109 | [3] -0.11 | [4] -0.055 | entinostat 0.012 | vorinostat 0.102 | citarinostat 0.086 | silmitasertib 0.072 | [5] 0.124 | [6] -0.064

EIF2AK2 (UniProt P19525)
inactive: [1] 0.037 | [2] -0.384 | [3] 0.36 | [4] 0.069 | entinostat 0.041 | vorinostat 0.084 | citarinostat -0.054 | silmitasertib 0.285 | [5] 0.369 | [6] -0.276

Five neighbouring records already listed:
ELP6 (UniProt Q0PNE2)
inactive: [1] -0.003 | [2] -0.041 | [3] -0.035 | [4] -0.031 | entinostat -0.032 | vorinostat -0.053 | citarinostat 0.021 | silmitasertib 0.009 | [5] -0.087 | [6] 0

EIF3J (UniProt O75822)
inactive: [1] 0.035 | [2] -0.033 | [3] -0.072 | [4] 0.007 | entinostat 0.012 | vorinostat 0.143 | citarinostat 0.001 | silmitasertib 0.042 | [5] -0.017 | [6] 0.022

EIF4E isoform 2 (UniProt P06730)
inactive: [1] 0.005 | [2] 0.226 | [3] 0.059 | [4] 0.126 | entinostat -0.073 | vorinostat -0.01 | citarinostat -0.026 | silmitasertib 0.102 | [5] -0.044 | [6] 0.141

EMC2 (UniProt Q15006)
inactive: [1] 0.014 | [2] -0.027 | [3] -0.065 | [4] -0.015 | entinostat 0.02 | vorinostat 0.018 | citarinostat 0.021 | silmitasertib -0.027 | [5] -0.014 | [6] -0.011

EIF3L (UniProt Q9Y262)
inactive: [1] 0.018 | [2] -0.037 | [3] -0.059 | [4] 0.001 | entinostat -0.001 | vorinostat 0.039 | citarinostat 0.03 | silmitasertib -0.027 | [5] -0.102 | [6] -0.067

The list continues:

EFCAB14 (UniProt O75071)
inactive: [1] 0.024 | [2] 0.218 | [3] -0.123 | [4] -0.006 | entinostat 0.007 | vorinostat -0.057 | citarinostat 0.181 | silmitasertib 0.022 | [5] -0.031 | [6] -0.075

ENO3 (UniProt P13929)
inactive: [1] 0.074 | [2] 0.088 | [3] 0.02 | [4] 0.15 | entinostat 0.037 | vorinostat 0.03 | citarinostat 0.029 | silmitasertib 0.055 | [5] -0.006 | [6] 0.019

ELP4 isoform 3 (UniProt Q96EB1)
inactive: [1] 0.001 | [2] 0.037 | [3] -0.013 | [4] 0.006 | entinostat -0.038 | vorinostat 0.009 | citarinostat 0.043 | silmitasertib 0.005 | [5] 0.003 | [6] -0.048

EPB41 (UniProt P11171)
inactive: [1] -0.169 | [2] 0.028 | [3] -0.036 | [4] -0.049 | entinostat -0.03 | vorinostat 0 | citarinostat 0 | silmitasertib 0.028 | [5] -0.039 | [6] -0.098

EIF2B4 isoform 2 (UniProt Q9UI10)
inactive: [1] 0.013 | [2] -0.028 | [3] -0.017 | [4] -0.014 | entinostat -0.035 | vorinostat 0.021 | citarinostat 0.03 | silmitasertib 0.018 | [5] 0.056 | [6] -0.055

EIF2B1 (UniProt Q14232)
inactive: [1] 0.005 | [2] -0.022 | [3] 0.024 | [4] 0.028 | entinostat -0.005 | vorinostat 0.012 | citarinostat 0.046 | silmitasertib -0.048 | [5] -0.015 | [6] -0.024

EOGT (UniProt Q5NDL2)
inactive: [1] -0.008 | [2] -0.063 | [3] -0.045 | [4] -0.011 | entinostat 0.031 | vorinostat -0.092 | citarinostat -0.016 | silmitasertib 0.038 | [5] 0.009 | [6] -0.063

EGLN1 (UniProt Q9GZT9)
inactive: [1] 0.095 | [2] -0.016 | [3] -0.043 | [4] -0.029 | entinostat -0.009 | vorinostat 0.021 | citarinostat 0.034 | silmitasertib 0.024 | [5] 0.014 | [6] -0.178

EIF5A isoform 2 (UniProt P63241)
inactive: [1] 0.048 | [2] -0.018 | [3] -0.125 | [4] -0.006 | entinostat 0.072 | vorinostat 0.088 | citarinostat 0.11 | silmitasertib -0.022 | [5] -0.013 | [6] 0.017

EEFSEC (UniProt P57772)
inactive: [1] 0.08 | [2] -0.073 | [3] -0.126 | [4] -0.025 | entinostat 0.049 | vorinostat 0.116 | citarinostat -0.024 | silmitasertib 0.045 | [5] 0.051 | [6] -0.17

ENOPH1 (UniProt Q9UHY7)
inactive: [1] 0.008 | [2] -0.07 | [3] -0.22 | [4] -0.079 | entinostat 0.122 | vorinostat 0.046 | citarinostat 0.031 | silmitasertib 0.006 | [5] -0.063 | [6] -0.009

EIF4A1 (UniProt P60842)
inactive: [1] 0.148 | [2] -0.08 | [3] -0.029 | [4] -0.044 | entinostat 0.079 | vorinostat 0.068 | citarinostat 0.088 | silmitasertib -0.01 | [5] -0.01 | [6] -0.05

EEF1E1 (UniProt O43324)
inactive: [1] 0.026 | [2] 0.021 | [3] 0.041 | [4] -0.045 | entinostat 0.042 | vorinostat 0.07 | citarinostat 0.045 | silmitasertib 0.099 | [5] 0.107 | [6] -0.1

EIF4A3 (UniProt P38919)
inactive: [1] -0.082 | [2] -0.055 | [3] 0.025 | [4] -0.12 | entinostat -0.016 | vorinostat -0.039 | citarinostat 0.03 | silmitasertib -0.052 | [5] -0.016 | [6] -0.053

EIF2B5 (UniProt Q13144)
inactive: [1] -0.01 | [2] -0.043 | [3] -0.03 | [4] -0.005 | entinostat 0.007 | vorinostat 0.017 | citarinostat 0.043 | silmitasertib 0.046 | [5] 0.05 | [6] -0.047

EMC3 (UniProt Q9P0I2)
inactive: [1] -0.007 | [2] -0.049 | [3] -0.036 | [4] -0.017 | entinostat -0.034 | vorinostat 0.084 | citarinostat 0.029 | silmitasertib 0.01 | [5] -0.022 | [6] -0.056

EIF5B (UniProt O60841)
inactive: [1] 0.007 | [2] -0.06 | [3] 0.019 | [4] -0.03 | entinostat 0.028 | vorinostat 0.037 | citarinostat 0.009 | silmitasertib -0.023 | [5] 0.059 | [6] -0.1

ENO1 (UniProt P06733)
inactive: [1] -0.017 | [2] 0.017 | [3] 0.092 | [4] 0.011 | entinostat -0.034 | vorinostat -0.036 | citarinostat -0.017 | silmitasertib -0.024 | [5] -0.035 | [6] 0.011

ENO2 (UniProt P09104)
inactive: [1] 0.037 | [2] -0.002 | [3] 0.027 | [4] 0.081 | entinostat -0.013 | vorinostat 0.027 | citarinostat 0.063 | silmitasertib -0.006 | [5] -0.013 | [6] -0.016

ENDOD1 (UniProt O94919)
inactive: [1] -0.033 | [2] 0.015 | [3] 0.029 | [4] -0.015 | entinostat -0.051 | vorinostat -0.024 | citarinostat -0.016 | silmitasertib -0.001 | [5] -0.043 | [6] -0.045
